Literature values as cited in US20220143006A1, “METHODS OF TREATING CANCER WITH FARNESYLTRANSFERASE INHIBITORS” (Kura Oncology, Inc., priority 2019, published 2022).
At least one structure is not confirmed: it was looked up by name or label, or the drawing left a doubt. Some results were stated once for a whole list of compounds, not compound by compound. Some compounds share one range, which may span the group rather than tell each member.

What was measured:
[1] = tested on: relapsed or refractory PTCL; settings: range over the three approved therapies; cited from earlier work
[2] = tested on: unselected tumor populations (AML, MDS/CMML, urothelial cancer, breast cancer, PTCL/CTCL); settings: cited from earlier work

| SMILES | duration of response [1] | objective response rate (overall response rate, ORR) [1] | improvement in overall survival ([2]; phase III clinic study) | single agent activity ([2]; unselected tumor populations (AML, MDS/CMML, urothelial cancer, breast cancer, PTCL/CTCL)) |
| --- | --- | --- | --- | --- |
| C/C=C1\NC(=O)[C@H]2CSSCC/C=C/[C@H](CC(=O)N[C@H](C(C)C)C(=O)N2)OC(=O)[C@H](C(C)C)NC1=O [romidepsin] | 8.2-9.4 months | 25-27% | – | – |
| Cn1cncc1[C@@](N)(c1ccc(Cl)cc1)c1ccc2c(c1)c(-c1cccc(Cl)c1)cc(=O)n2C [tipifarnib, (B)-6-[amino(4-chlorophenyl)(1-methyl-1H-imidazol-5-yl)methyl]-4-(3-chlorophenyl)-1-methyl-2(1H)-quinolinone] | – | – | failed to demonstrate improvement in overall survival | Single agent activity of tipifarnib was observed |
